Laboratory results: paper PMC11599456
Like-named read-outs stand apart in the source and are kept apart here. Results are given in words; binding and its absence hold for the method and conditions named. In cells and extracts the contact can be indirect. Here binding means that the protein was enriched with, or labelled near, the bait; the list need not be complete. Tags and fused reporters may be left off the sequences shown. Values belong to the molecule of their own block, whether it stands above or below them.

The chains behind the UniProt entries cited, without tags or fusion partners.
UniProt P55060: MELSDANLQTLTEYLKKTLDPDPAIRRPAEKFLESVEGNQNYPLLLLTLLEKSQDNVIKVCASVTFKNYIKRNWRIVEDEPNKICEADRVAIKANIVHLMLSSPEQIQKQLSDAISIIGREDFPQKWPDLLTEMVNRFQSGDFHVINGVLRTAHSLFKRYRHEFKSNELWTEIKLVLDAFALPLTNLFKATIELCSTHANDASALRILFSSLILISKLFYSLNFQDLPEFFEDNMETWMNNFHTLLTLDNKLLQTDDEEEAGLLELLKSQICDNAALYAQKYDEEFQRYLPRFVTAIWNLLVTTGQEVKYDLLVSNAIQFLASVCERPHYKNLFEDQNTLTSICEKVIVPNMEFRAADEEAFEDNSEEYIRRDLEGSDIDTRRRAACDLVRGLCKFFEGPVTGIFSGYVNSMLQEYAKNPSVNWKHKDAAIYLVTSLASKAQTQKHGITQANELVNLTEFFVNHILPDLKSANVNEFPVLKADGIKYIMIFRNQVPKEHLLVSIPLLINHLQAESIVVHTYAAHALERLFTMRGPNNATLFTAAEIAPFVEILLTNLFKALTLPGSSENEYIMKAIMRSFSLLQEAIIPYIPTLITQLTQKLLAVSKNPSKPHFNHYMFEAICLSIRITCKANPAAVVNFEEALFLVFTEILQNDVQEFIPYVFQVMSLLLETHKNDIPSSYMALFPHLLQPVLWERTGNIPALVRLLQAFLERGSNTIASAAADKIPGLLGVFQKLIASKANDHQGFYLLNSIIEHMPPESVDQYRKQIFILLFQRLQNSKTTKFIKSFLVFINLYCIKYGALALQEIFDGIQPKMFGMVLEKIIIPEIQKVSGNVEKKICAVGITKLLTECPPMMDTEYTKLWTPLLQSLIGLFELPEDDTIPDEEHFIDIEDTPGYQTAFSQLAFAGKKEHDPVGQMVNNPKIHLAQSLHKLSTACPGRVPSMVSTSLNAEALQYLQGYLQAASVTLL

How the values were obtained:
[1] = target: T1, 5Myc-6His-CHRONO stably expressed in U2OS cells (human) (UniProt Q8N365); assay: affinity purification with mass spectrometry; anti-Myc antibody on Protein G agarose beads, lysate of U2OS cells stably expressing 5Myc6His-CHRONO; immunoglobulin G as background control; SDS-PAGE, in-gel trypsin digest, LC-MS/MS
T1 sequence: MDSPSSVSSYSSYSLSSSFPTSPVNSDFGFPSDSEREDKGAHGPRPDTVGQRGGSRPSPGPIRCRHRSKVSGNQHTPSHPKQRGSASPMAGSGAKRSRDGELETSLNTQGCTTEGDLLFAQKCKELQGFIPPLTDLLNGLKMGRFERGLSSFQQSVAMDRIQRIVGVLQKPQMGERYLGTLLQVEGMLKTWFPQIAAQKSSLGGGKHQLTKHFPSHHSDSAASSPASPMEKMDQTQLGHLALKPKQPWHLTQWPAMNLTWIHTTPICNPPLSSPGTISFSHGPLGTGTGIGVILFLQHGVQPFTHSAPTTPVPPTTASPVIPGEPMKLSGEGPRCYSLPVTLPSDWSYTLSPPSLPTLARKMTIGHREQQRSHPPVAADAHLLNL

[2] = target: T1, 5Myc-6His-CHRONO stably expressed in U2OS cells (human); assay: as above; remark: listed apart in the source

- binding [1]: binds
Molecule: endogenous CSE1L of U2OS cells (from UniProt P55060 1-971)

- binding [2]: binds
B1: HNRNPDL (heterogeneous nuclear ribonucleoprotein D like), endogenous in U2OS cells (protein, UniProt O14979 1-420)
chain: MEVPPRLSHVPPPLFPSAPATLASRSLSHWRPRPPRQLAPLLPSLAPSSARQGARRAQRHVTAQQPSRLAGGAAIKGGRRRRPDLFRRHFKSSSIQRSAAAAAATRTARQHPPADSSVTMEDMNEYSNIEEFAEGSKINASKNQQDDGKMFIGGLSWDTSKKDLTEYLSRFGEVVDCTIKTDPVTGRSRGFGFVLFKDAASVDKVLELKEHKLDGKLIDPKRAKALKGKEPPKKVFVGGLSPDTSEEQIKEYFGAFGEIENIELPMDTKTNERRGFCFITYTDEEPVKKLLESRYHQIGSGKCEIKVAQPKEVYRQQQQQQKGGRGAAAGGRGGTRGRGRGQGQNWNQGFNNYYDQGYGNYNSAYGGDQNYSGYGGYDYTGYNYGNYGYGQGYADYSGQQSTYGKASRGGGNHQNNYQPY
